Measurements taken from the supplement of paper PMC10849652.
This is one part of the list.

Sequences of proteins named here, by UniProt entry; tags and fusion partners are left off. A change or cut given only in a name is not applied to a line headed by its entry.
UniProt P04629: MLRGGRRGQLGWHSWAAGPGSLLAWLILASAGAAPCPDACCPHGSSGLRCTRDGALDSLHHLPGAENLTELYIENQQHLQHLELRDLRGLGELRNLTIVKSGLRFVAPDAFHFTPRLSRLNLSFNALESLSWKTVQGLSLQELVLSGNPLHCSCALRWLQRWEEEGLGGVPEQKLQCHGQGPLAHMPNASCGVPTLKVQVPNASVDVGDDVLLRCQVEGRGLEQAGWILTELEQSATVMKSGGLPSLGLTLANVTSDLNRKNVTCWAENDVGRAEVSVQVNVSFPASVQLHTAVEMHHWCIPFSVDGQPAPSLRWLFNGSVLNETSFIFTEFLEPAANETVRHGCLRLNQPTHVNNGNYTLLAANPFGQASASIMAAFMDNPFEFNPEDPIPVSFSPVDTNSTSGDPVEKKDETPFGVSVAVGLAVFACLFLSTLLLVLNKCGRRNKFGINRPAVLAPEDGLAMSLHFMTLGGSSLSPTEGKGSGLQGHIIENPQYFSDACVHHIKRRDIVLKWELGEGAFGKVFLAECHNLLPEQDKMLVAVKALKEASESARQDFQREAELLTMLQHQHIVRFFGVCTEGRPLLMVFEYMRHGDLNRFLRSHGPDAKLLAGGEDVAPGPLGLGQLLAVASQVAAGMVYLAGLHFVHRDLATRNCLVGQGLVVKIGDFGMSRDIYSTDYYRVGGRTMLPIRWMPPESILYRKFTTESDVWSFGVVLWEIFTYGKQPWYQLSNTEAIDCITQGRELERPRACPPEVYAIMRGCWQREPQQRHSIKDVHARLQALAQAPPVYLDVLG
UniProt P49757: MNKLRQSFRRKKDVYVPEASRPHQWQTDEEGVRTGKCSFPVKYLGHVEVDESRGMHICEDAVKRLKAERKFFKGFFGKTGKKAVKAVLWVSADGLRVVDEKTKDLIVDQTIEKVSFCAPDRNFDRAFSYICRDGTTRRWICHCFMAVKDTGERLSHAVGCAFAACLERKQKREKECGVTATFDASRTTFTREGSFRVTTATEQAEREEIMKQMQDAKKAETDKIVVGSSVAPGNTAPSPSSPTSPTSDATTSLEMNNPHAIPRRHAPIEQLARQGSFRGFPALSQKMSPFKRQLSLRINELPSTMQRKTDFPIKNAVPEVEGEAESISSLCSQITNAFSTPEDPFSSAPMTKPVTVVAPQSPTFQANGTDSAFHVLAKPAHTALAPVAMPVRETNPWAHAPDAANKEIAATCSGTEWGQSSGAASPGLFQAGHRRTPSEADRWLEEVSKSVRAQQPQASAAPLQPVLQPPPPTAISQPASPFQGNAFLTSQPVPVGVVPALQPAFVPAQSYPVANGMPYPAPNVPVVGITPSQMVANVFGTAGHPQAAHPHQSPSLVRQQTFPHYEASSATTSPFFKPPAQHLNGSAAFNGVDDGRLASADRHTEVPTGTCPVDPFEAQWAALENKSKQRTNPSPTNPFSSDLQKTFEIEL
UniProt P69849: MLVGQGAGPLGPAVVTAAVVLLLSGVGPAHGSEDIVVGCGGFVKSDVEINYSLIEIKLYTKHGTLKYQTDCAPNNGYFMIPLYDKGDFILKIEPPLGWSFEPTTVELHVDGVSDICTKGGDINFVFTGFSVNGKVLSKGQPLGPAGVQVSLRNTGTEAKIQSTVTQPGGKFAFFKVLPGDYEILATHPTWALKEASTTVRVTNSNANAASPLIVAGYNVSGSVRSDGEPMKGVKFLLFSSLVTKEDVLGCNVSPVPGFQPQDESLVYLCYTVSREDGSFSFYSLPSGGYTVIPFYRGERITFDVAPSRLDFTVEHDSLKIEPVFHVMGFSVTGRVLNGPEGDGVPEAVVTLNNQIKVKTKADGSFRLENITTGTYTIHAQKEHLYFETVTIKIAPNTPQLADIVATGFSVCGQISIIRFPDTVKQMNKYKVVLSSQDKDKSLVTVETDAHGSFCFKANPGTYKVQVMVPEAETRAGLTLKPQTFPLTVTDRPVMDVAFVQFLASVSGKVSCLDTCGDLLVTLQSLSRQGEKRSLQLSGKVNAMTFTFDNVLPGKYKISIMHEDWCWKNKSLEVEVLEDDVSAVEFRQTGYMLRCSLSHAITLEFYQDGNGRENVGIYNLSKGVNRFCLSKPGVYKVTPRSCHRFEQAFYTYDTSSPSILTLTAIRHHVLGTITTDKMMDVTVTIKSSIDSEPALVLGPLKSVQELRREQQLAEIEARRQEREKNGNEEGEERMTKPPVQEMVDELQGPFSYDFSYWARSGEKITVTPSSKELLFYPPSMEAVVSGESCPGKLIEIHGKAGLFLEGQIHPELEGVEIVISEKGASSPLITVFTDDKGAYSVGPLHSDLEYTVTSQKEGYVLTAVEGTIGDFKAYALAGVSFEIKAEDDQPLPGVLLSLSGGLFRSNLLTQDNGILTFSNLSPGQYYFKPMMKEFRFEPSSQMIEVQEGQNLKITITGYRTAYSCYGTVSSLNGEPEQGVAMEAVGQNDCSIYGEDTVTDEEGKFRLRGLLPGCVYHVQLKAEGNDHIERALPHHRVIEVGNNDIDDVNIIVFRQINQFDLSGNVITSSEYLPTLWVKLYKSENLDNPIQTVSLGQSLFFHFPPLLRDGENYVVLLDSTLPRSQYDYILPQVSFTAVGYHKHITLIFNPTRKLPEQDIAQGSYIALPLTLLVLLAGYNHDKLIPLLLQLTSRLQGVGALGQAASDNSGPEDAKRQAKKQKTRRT
UniProt P48552: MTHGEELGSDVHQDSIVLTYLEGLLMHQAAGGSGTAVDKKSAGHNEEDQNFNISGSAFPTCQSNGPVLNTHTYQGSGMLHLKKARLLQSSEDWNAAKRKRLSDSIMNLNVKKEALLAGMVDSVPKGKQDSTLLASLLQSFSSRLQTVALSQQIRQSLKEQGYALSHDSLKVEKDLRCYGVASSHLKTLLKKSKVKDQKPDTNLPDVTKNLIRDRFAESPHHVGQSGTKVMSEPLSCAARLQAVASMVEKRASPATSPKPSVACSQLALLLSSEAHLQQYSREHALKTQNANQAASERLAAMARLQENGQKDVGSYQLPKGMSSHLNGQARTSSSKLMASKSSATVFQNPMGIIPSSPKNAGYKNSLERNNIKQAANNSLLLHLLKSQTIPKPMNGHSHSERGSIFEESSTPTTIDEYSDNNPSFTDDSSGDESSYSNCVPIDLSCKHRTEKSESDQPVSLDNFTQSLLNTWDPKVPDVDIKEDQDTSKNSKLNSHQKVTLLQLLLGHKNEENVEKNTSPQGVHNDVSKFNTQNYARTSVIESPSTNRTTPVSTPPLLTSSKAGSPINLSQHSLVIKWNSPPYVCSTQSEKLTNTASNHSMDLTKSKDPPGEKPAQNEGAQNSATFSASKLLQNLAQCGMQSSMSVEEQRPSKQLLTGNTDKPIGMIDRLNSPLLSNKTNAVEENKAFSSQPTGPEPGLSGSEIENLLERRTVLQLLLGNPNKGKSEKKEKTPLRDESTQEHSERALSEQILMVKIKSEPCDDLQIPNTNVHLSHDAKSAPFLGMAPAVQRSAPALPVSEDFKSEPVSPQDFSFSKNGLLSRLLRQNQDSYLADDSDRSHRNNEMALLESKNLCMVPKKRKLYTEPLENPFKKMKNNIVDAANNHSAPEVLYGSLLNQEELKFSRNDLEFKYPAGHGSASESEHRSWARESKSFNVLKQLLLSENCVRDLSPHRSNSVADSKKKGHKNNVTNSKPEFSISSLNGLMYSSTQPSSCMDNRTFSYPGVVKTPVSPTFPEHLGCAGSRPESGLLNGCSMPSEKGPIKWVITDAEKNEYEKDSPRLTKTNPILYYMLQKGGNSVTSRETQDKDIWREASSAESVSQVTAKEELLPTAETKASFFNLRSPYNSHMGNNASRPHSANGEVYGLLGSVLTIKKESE
UniProt Q9GZP1: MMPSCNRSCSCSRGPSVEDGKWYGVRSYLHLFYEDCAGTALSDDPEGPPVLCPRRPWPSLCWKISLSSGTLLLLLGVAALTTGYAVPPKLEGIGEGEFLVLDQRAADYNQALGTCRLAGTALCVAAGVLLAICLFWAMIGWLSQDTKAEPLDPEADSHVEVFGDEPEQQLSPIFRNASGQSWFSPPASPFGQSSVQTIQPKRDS
UniProt Q8TB37: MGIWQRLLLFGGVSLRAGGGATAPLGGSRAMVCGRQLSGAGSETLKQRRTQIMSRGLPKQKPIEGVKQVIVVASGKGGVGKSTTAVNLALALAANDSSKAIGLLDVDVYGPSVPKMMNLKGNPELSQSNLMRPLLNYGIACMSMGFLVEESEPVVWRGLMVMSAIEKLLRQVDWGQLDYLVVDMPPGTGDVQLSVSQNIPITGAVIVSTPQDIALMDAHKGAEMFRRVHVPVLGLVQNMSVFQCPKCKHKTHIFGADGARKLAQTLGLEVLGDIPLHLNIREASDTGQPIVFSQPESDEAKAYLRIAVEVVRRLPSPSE
UniProt O00746: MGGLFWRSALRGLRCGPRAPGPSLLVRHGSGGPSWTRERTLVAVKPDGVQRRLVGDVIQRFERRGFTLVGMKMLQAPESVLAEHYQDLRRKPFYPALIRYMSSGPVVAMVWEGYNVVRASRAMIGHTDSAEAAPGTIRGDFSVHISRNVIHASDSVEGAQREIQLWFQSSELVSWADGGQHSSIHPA
UniProt Q9NWW6: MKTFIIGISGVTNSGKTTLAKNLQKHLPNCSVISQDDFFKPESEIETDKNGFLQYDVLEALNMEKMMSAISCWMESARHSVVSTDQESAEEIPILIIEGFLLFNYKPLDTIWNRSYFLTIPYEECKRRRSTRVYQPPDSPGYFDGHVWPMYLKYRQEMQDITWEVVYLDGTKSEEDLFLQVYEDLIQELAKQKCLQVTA
UniProt Q9UHK0: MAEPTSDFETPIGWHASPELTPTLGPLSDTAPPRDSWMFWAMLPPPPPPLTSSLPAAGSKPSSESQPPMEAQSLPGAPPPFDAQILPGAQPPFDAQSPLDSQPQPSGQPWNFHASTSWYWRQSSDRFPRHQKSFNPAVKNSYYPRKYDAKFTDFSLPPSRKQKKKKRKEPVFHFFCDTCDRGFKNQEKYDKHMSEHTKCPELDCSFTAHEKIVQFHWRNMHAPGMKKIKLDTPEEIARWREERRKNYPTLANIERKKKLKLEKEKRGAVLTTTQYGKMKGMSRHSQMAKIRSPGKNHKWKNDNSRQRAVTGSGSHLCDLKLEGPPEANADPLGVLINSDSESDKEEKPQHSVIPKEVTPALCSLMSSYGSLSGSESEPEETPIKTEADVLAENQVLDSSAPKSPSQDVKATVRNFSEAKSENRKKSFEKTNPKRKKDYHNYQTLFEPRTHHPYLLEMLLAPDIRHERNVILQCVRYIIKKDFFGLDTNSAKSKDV
UniProt Q96MY1: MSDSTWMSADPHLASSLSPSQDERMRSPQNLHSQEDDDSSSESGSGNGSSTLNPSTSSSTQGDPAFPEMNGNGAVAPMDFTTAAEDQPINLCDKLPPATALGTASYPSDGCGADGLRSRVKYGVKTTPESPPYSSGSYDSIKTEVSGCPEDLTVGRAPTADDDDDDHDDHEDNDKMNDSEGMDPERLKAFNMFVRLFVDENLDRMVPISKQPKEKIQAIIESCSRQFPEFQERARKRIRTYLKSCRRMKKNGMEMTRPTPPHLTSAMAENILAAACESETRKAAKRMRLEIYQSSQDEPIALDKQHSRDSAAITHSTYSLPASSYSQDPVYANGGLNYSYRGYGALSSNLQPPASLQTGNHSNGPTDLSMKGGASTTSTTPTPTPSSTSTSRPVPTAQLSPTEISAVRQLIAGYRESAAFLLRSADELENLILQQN
UniProt Q9Y5A7: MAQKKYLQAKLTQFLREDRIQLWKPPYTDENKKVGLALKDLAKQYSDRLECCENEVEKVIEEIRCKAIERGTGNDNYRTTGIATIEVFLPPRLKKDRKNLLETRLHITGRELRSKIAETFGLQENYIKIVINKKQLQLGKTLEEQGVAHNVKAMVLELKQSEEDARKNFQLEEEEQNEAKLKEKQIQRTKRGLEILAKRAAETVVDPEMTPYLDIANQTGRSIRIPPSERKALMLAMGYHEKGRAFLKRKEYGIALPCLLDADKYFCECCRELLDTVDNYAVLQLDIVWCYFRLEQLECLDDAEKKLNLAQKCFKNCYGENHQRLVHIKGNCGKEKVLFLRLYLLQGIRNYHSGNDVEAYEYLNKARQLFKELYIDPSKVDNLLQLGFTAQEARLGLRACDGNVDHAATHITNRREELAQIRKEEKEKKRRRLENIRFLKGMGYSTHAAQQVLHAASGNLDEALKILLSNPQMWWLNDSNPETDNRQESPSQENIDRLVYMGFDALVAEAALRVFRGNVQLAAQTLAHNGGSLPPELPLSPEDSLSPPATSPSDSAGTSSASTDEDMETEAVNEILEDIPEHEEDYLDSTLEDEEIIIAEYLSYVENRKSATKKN
UniProt Q9NQ35: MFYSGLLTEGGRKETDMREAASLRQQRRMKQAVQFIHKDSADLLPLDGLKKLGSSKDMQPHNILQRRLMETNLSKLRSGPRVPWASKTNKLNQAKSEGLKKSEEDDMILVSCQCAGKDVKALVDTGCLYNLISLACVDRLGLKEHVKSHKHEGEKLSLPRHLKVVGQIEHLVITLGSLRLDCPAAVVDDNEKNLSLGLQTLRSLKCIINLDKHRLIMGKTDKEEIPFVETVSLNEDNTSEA

Key:
Test in all cases: log2 fold change, soluble protein after heating vs DMSO (PISA); higher = thermal stabilisation; K562 lysate, 10 uM; active = over 0.2 and 3.5 SD of the protein, either way, in both replicates (recomputed)
[1] = compound: C/C(=N\NC(=O)C1=CC(=CC=C1)S(=O)(=O)N2CCOCC2)/C3=C(C=CC(=C3)Cl)O
How it was run: (§1)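 To prepare the extract, K562 pellets were dounce-homogenised in PBS pH 7.4 with 1 mM MgCl2, giving crude material at 1 mg/mL protein. This was treated with 10 μM compound for 30 min, then heated in aliquots for 3 min over 48°C-58°C before pooling and addition of NP-40 to 0.5% at 4°C. Centrifugation at 21,000xg for 90 min left soluble protein in the supernatant, which TMTpro 16plex LC-MS/MS quantified with equalised channel sums. Results are log-two fold changes in thermal stability compared with solvent controls, from duplicates.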

[2] = compound: C1=CC2=C(C=CC(=C2)/C=C\3/C(=O)NC(=NCC4=CC=CS4)S3)N=C1
How it was run: as §1

[3] = compound: C1=CC2=NC=CN=C2C=C1/C=C/3\C(=O)NC(=O)S3
How it was run: as §1

[4] = compound: C1=CC=C(C=C1)C2=NC(=C(N2)C3=CC=NC=C3)C4=CC(=C(C=C4)Cl)O
How it was run: as §1

[5] = compound: C1=CC=C2C(=C1)C3=NNC4=CC=CC(=C43)C2=O
How it was run: as §1

[6] = compound: C1CCN(C1)C(=O)NC2=CC=CC(=C2)NC3=NC=C(C(=N3)NCCC4=CN=CN4)Br
How it was run: as §1

[7] = compound: C1CN(CCC1(CC2=CC=C(C=C2)Cl)N)C3=NC=NC4=C3C=CN4
How it was run: as §1

[8] = compound: C1COCCN1CCN2C3=CC=CC=C3N=C2NC(=O)C4=CC(=CC=C4)[N+](=O)[O-] [IRAK-1-4 Inhibitor I]
How it was run: as §1

[9] = compound: C=CC(=O)N1CCC[C@@H](n2nc(-c3ccc(Oc4ccccc4)cc3)c3c(N)ncnc32)C1 [ibrutinib]
How it was run: as §1

[10] = compound: CC(=O)c1cnc2ccc(-c3cc(Cl)c(O)c(Cl)c3)nc2c1N[C@H]1CC[C@H](CN(C)C)CC1
How it was run: as §1

[11] = compound: CC(C)(C)Cn1c(N)nc2ccc(-c3[nH]c(C(C)(C)C)nc3-c3ccc(F)cc3)nc21 [ralimetinib]
How it was run: as §1

[12] = compound: CC(C)(O)CC(=O)NCCn1ccc2ncnc(Nc3ccc(Oc4cccc(C(F)(F)F)c4)c(Cl)c3)c21
How it was run: as §1

[13] = compound: CC1=C(C(CC(=O)N1)C2=CC=C(C=C2)C(F)(F)F)C(=O)NC3=C(C=C4C(=C3)C=NN4)F
How it was run: as §1

[14] = compound: CC1=C(C=C(C=C1)NC(=O)C2=CC(=CC=C2)C(C)(C)C#N)NC3=CC4=C(C=C3)N=CN(C4=O)C
How it was run: as §1

[15] = compound: CC1=C(C=C(C=C1)NC(=O)C2=CC(=CC=C2)N(C)C)NC(=O)C3=CC=C(C=C3)O
How it was run: as §1

[16] = compound: CC1=CC=C(C=C1)SC2=C3C=C(SC3=CN=C2)C(=O)N
How it was run: as §1

[17] = compound: C#Cc1cccc(Nc2ncnc3cc(OCCOC)c(OCCOC)cc23)c1 [erlotinib]
How it was run: as §1

[18] = compound: C1=CC(=CC=C1C2=NC3=C(N2)C=C(C=C3)C(=O)N)OC4=CC=C(C=C4)Cl
How it was run: as §1

[19] = compound: CC(C)C1=C2N=C(C=C(N2N=C1)NCC3=CC=CC=C3)NCCCCCCN
How it was run: as §1

[20] = compound: CC1=C(C2=C(C=C1)C(=O)C3=CC=CC=C3N2CCCN)C
How it was run: as §1

Measured: log2 fold change

NSD2 (UniProt O96028)
inactive: [1] 0.008 | [2] 0.225 | [3] 0.036 | [4] -0.02 | [5] -0.003 | [6] 0.15 | [7] -0.102 | [8] -0.233 | [9] 0.184 | [10] 0.084 | [11] -0.144 | [12] -0.155 | [13] -0.238 | [14] 0.065 | [15] 0.128 | [16] 0.059

NUDT14 (UniProt O95848)
inactive: [17] 0.161 | [18] -0.186 | [3] -0.106 | [4] -0.182 | [8] 0.029 | [9] 0.008 | [10] -0.022 | [11] -0.214 | [12] -0.119 | [19] 0.178 | [20] -0.068 | [14] -0.042 | [15] -0.024 | [16] -0.09

NT5C2 (UniProt Q5JUV3)
inactive: [6] 0.025 | [7] 0.048 | [20] 0.008 | [14] 0.059

NTRK1 (UniProt P04629)
inactive: [1] 0.105 | [2] -0.305 | [4] -0.087 | [5] 0.082 | [6] 0.102 | [7] -0.299 | [8] -0.011 | [11] -0.047 | [12] 0.069 | [20] -0.085 | [14] -0.045 | [15] 0.078

NUMB isoform 2 (UniProt P49757)
inactive: [4] 0.304 | [8] 0.021 | [11] 0.059 | [12] 0.12 | [13] 0.154 | [20] -0.245 | [15] -0.062

NR2F6 (UniProt P10588)
inactive: [4] -0.031 | [6] 0.136 | [7] 0.062 | [8] -0.013 | [11] -0.024 | [12] -0.299 | [13] 0.213 | [20] 0.06 | [14] -0.078 | [15] 0.002

NR1D1 (UniProt P20393)
inactive: [6] 0.09 | [7] 0.196

NUDT5 (UniProt C9JYY9)
inactive: [17] 0.098 | [18] -0.157 | [6] -0.069 | [7] 0.034 | [19] -0.111 | [13] -0.05

NSD3 (UniProt Q9BZ95)
inactive: [3] -0.404 | [4] -0.152 | [6] -0.011 | [7] 0.005 | [8] 0.071 | [9] 0 | [11] -0.066 | [12] 0.036 | [13] 0.055 | [20] 0.144 | [14] 0.043 | [15] 0.075

NOCT (UniProt Q9UK39)
inactive: [17] -0.129 | [18] 0.061 | [4] 0.1 | [6] -0.134 | [7] 0.06 | [8] 0.007 | [10] 0.001 | [11] 0.068 | [12] -0.06 | [19] 0.014 | [13] 0.004 | [20] 0.114 | [14] -0.012 | [15] -0.066 | [16] 0.064

NOMO3 (UniProt P69849)
inactive: [17] 0.035 | [18] -0.045 | [4] -0.004 | [8] 0.001 | [10] -0.15 | [11] -0.032 | [12] 0.019 | [19] 0.015 | [13] -0.009 | [20] 0.033 | [14] 0.04 | [15] 0.009 | [16] -0.062

NRDE2 (UniProt Q9H7Z3)
inactive: [3] 0.084 | [4] -0.087 | [8] 0.25 | [9] 0.227 | [10] 0.086 | [11] 0.288 | [12] -0.244 | [13] -0.025 | [20] -0.07 | [15] -0.158 | [16] -0.005

NR2C1 (UniProt P13056)
inactive: [1] -0.09 | [2] -0.055 | [3] 0.113 | [5] -0.002 | [9] -0.019 | [13] -0.039 | [14] -0.195

NRIP1 (UniProt P48552)
inactive: [17] 0.031 | [18] 0 | [3] -0.033 | [4] 0.024 | [8] 0.114 | [9] -0.018 | [10] -0.055 | [11] -0.05 | [12] -0.165 | [19] -0.007 | [13] 0.093 | [20] -0.217 | [14] 0.175 | [15] -0.005 | [16] -0.102

NRSN2 (UniProt Q9GZP1)
inactive: [20] 0.02

NT5C (UniProt J3KSX6)
inactive: [3] 0.039 | [9] -0.07 | [10] 0.072 | [16] 0.018

NOM1 (UniProt Q5C9Z4)
inactive: [1] -0.121 | [2] 0.126 | [5] 0.111 | [6] -0.23 | [7] 0.12 | [10] 0.061 | [13] -0.015 | [20] -0.055 | [14] 0.032 | [16] 0

NUBPL (UniProt Q8TB37)
inactive: [1] 0.141 | [2] -0.01 | [5] 0.13 | [6] 0.112 | [7] 0.368 | [20] -0.098

NME4 (UniProt O00746)
inactive: [17] -0.126 | [18] -0.084 | [4] 0.274 | [6] 0.01 | [7] 0.103 | [8] 0.156 | [11] -0.173 | [12] -0.059 | [19] 0.068 | [14] 0.08 | [15] 0.078

NMRK1 (UniProt Q9NWW6)
inactive: [14] -0.006

Random excerpt: 2 entries already listed, in no set order.
NRDE2 (UniProt Q9H7Z3)
inactive: [3] 0.084 | [4] -0.087 | [8] 0.25 | [9] 0.227 | [10] 0.086 | [11] 0.288 | [12] -0.244 | [13] -0.025 | [20] -0.07 | [15] -0.158 | [16] -0.005

NUMB isoform 2 (UniProt P49757)
inactive: [4] 0.304 | [8] 0.021 | [11] 0.059 | [12] 0.12 | [13] 0.154 | [20] -0.245 | [15] -0.062

(further entries)

NUFIP1 (UniProt Q9UHK0)
inactive: [3] 0.014 | [4] 0.068 | [6] 0.084 | [7] -0.033 | [8] -0.047 | [9] 0.093 | [11] 0.299 | [12] -0.034 | [13] 0.036 | [20] 0.007 | [14] 0.085 | [15] 0.033

NOL4L (UniProt Q96MY1)
inactive: [17] 0.003 | [18] -0.067 | [4] 0.05 | [6] 0.129 | [7] -0.023 | [8] 0.02 | [10] -0.043 | [11] 0.088 | [12] 0.028 | [19] 0.031 | [20] 0.008 | [15] -0.046 | [16] 0.025

NUB1 (UniProt H7C5N1)
inactive: [4] 0.163 | [8] 0.183 | [11] 0.133 | [12] -0.146 | [15] -0.131

NUB1 isoform 2 (UniProt Q9Y5A7)
inactive: [14] 0.075

NRIP3 (UniProt Q9NQ35)
inactive: [1] 0.048 | [2] 0.29 | [5] -0.199 | [6] 0.046 | [7] 0.099

NME3 (UniProt H3BPR2)
inactive: [10] 0.254 | [16] -0.097

NTMT1 (UniProt S4R338)
inactive: [10] -0.182 | [16] 0.058

NSDHL (UniProt C9JDR0)
inactive: [10] 0.047 | [13] 0.031 | [16] 0.038

NMNAT3 (UniProt Q96T66)
inactive: [3] 0.087 | [9] 0.023

NPLOC4 (UniProt I3L3I1)
inactive: [3] -0.029 | [6] -0.128 | [7] 0.046 | [9] -0.022 | [20] -0.169 | [14] 0.447
